Results published in article PMC3322156.
Results are given in words; binding and its absence hold for the method and conditions named. For some assays here: In cells and extracts the contact can be indirect. Some results given as binding are weak or reduced against the parent protein; the word gives no strength.

Chains of the proteins cited; added tags and fusions are not shown. Lines headed by an entry give the natural chain unless they say otherwise; changes in a name come on top.
UniProt Q8CHI8: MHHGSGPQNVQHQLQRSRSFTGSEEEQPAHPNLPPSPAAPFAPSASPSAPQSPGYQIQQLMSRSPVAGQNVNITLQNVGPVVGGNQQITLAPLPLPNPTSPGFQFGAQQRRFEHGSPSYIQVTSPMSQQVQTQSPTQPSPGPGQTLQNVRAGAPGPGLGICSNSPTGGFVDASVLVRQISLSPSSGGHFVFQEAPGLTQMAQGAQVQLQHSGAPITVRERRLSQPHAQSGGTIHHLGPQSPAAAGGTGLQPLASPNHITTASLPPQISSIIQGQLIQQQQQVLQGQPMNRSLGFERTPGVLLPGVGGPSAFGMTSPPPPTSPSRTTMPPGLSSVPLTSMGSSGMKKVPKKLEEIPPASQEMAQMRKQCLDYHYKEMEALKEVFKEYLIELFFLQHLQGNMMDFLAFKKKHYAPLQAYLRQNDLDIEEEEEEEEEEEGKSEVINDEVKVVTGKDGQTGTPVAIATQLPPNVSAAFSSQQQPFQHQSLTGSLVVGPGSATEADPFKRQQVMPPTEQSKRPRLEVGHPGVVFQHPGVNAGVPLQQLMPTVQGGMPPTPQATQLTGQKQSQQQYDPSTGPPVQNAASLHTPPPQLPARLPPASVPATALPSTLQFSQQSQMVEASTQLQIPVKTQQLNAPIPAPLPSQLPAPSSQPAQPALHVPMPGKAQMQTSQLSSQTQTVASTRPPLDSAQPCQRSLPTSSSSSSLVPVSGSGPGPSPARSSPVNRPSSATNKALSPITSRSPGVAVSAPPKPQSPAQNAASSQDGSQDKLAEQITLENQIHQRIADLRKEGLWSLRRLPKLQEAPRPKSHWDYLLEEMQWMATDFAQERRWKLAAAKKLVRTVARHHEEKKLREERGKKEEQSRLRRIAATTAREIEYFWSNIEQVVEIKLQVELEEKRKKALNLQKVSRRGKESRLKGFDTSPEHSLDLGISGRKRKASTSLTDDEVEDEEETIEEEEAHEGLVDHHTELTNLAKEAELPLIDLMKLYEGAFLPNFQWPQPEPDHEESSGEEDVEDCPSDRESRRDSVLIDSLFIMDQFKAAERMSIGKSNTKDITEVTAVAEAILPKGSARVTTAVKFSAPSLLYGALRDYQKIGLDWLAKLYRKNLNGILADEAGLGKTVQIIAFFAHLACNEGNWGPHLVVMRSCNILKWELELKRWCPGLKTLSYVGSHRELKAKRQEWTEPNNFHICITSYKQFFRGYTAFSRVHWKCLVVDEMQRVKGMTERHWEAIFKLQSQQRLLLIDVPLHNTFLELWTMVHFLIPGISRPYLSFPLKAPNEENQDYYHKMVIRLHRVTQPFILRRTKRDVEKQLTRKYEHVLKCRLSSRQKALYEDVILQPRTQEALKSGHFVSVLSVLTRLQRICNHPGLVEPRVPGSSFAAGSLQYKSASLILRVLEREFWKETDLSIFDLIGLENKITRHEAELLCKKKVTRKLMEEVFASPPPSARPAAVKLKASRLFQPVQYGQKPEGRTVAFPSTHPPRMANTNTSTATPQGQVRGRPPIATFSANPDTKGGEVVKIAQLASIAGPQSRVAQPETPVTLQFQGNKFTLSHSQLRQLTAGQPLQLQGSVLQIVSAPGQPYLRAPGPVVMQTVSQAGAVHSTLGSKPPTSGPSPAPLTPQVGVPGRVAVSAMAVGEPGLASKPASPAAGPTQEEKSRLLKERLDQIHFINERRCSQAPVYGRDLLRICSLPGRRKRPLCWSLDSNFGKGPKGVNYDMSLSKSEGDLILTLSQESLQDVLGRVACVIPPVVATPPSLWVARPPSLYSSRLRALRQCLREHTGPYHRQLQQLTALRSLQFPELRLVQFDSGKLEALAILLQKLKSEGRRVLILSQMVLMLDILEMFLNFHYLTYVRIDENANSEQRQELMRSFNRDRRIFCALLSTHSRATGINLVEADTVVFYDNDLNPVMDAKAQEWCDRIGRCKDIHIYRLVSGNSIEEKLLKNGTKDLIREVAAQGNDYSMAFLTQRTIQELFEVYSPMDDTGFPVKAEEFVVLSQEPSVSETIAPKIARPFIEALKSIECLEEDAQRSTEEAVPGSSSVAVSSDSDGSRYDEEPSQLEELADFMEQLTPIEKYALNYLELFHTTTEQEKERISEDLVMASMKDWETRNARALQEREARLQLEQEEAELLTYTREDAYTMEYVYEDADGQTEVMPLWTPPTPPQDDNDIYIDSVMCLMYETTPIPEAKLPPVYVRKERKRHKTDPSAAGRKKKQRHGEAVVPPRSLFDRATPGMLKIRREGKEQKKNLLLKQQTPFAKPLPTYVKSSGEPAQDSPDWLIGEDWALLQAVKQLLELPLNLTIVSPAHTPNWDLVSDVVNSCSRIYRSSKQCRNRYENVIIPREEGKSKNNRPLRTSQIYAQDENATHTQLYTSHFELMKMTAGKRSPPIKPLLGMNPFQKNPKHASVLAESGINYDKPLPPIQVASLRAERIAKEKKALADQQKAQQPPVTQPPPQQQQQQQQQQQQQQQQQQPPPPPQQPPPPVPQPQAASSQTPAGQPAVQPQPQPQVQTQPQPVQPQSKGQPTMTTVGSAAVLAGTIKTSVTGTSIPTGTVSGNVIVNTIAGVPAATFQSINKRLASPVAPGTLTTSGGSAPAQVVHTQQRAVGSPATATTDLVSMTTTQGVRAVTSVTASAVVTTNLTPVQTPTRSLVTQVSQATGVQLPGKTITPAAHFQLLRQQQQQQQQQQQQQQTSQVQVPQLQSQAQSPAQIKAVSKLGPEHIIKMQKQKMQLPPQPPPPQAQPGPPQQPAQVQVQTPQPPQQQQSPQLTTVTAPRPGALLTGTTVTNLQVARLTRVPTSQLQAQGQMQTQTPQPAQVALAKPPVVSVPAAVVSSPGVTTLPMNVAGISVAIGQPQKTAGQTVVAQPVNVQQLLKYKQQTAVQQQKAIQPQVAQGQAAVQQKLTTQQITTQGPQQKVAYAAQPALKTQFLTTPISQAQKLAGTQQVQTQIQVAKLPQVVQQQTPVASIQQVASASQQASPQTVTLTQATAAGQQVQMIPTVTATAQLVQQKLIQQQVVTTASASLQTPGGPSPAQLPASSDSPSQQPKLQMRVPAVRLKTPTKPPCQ
UniProt Q9CQJ4: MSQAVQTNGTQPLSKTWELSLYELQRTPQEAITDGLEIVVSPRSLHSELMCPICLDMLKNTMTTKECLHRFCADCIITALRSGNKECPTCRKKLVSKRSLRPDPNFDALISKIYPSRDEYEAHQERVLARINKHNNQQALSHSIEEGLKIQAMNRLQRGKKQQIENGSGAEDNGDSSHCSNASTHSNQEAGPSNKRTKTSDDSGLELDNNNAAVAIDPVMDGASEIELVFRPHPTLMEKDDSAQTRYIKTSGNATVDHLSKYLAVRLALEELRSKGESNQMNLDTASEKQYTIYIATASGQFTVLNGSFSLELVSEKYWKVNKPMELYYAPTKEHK
UniProt Q9JI44: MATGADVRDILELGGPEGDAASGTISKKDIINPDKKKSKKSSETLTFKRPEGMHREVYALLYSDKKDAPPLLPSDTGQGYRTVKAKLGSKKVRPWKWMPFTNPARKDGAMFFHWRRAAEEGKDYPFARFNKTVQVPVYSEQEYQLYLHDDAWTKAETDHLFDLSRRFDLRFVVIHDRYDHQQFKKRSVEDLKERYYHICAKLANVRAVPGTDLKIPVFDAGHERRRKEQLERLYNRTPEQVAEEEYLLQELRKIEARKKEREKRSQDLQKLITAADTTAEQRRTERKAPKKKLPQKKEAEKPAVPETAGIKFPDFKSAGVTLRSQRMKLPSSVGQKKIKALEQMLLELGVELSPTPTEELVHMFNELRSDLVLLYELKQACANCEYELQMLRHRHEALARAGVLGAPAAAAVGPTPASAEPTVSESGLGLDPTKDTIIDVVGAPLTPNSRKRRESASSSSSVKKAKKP

Legend:
[1] = target: p400 (mouse (endogenous in ESCs)) (UniProt Q8CHI8); assay: SEC; 1 mg WT E14 ESC nuclear extract treated with RNase A and Benzonase, Superose 6 10/300 GL in BC200 buffer; every other 0.5 ml fraction TCA precipitated and immunoblotted
[2] = target: Ring1B (mouse (endogenous in ESCs)) (UniProt Q9CQJ4); assay: sucrose gradient sedimentation; 1.5 mg WT (OS25) ESC nuclear extract on a 10-50% sucrose gradient in BC100 buffer, SW41 41 000 rpm 28 h at 4 C; fractions immunoblotted for Ring1B and Dmap1
Ring1BI53A = Ring1BI53A (UniProt Q9CQJ4); assay: co-IP; IP of Ring1B from nuclear extracts of WT ESCs and of Ring1B-/- ESCs rescued with full length Ring1B or Ring1BI53A; 12% SDS-PAGE, immunoblot with anti-Dmap1
[3] = target: full length Ring1B (rescue) (UniProt Q9CQJ4); assay: as above
[4] = target: Ring1B (mouse (endogenous in ESCs)) (UniProt Q9CQJ4); assay: as above

Measured: binding

Dmap1 (from UniProt Q9JI44 1-468)
binds: all assays above
